PubChem BioAssay AID686938 – Drosophila RNAi Screening Center – 2013
The deposit covers about 23,000 reagents; shown is a random part of those with a known target gene and a result. In the full data, 75 (0.33%) were called active. 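Raw plate signals without normalisation; calls rest on plate z-scores that were not deposited; ratio present for only 364 wells.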 A number with no mark means an inactive call. The numbers tell different reagents against one gene apart. Names joined by + are all predicted targets of the reagent. No sequences are given here. The record does not give: the dose of the treatment.

Aim: 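Fly genes required for calcium entry once internal stores are emptied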 (primary screen)
System: Drosophila S2R+ cells
Reagents: long dsRNA against Drosophila genes, about 0.25 µg dsRNA per well, roughly 10,000 cells
Timing: 5 days of knock-down before the calcium assay
Challenge: thapsigargin (SERCA pump blocker) to empty calcium stores; entry signal taken 4 min after adding it
Measurement: 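Duplicate raw fluo-4 intensities per well from a plate reader, at rest and four minutes after thapsigargin emptied calcium stores; entry-to-rest ratio filled for only some wells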
Reading the numbers: calcium entry signal: higher = stronger calcium signal after store depletion; entry to resting ratio: higher = more calcium entry relative to resting level; resting calcium signal: higher = higher resting calcium signal
Rule for the call: 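Called when the plate z-score of the entry-to-rest ratio, mean of duplicates, falls below −3; wells with low overall dye signal (Fmax z below −2) or more than five off-targets excluded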
Meaning of the calls: active = strongly reduced calcium entry; inactive = no strong reduction

gene knocked down,reagent no.,"calcium entry signal, replicate 1 (fluorescence units)","calcium entry signal, replicate 2 (fluorescence units)",entry to resting ratio,"resting calcium signal, replicate 1 (fluorescence units)","resting calcium signal, replicate 2 (fluorescence units)"
CG42729,1,4.87e7,4.93e7,,2.02e7,2.04e7
Nepl18,1,3.73e7,6.02e7,,1.99e7,2.60e7
CG12688 (retired record),1,2.34e7,4.45e7,,1.30e7,2.35e7
CG12688 (retired record),2,2.93e7,4.21e7,,1.37e7,2.34e7
CG1309,1,5.81e7,3.71e7,,3.78e7,1.58e7
qin,1,4.40e7,4.11e7,,4.72e7,1.86e7
qin,2,4.09e7,4.48e7,,2.88e7,2.14e7
RpS2,1,8.48e6,,,7.00e6,
Lcp65Ae,1,2.62e7,3.39e7,,1.15e7,1.26e7
P5cr,1,2.51e7,3.04e7,,3.56e7,1.36e7
CG15522,1,3.65e7,5.52e7,,1.83e7,2.20e7
CG30053,1,3.27e7,4.14e7,,1.78e7,2.01e7
CG30031 + deltaTry + CG30025 + 1 more,1,4.05e7,5.27e7,,2.21e7,2.24e7
Obp56a,1,6.20e7,4.41e7,,2.39e7,2.19e7
rl,1,2.96e7,4.37e7,,1.54e7,2.07e7
rl,2,3.47e7,3.68e7,,2.18e7,1.82e7
rl,3,3.67e7,3.31e7,,2.00e7,1.66e7
sdk,1,3.93e7,5.05e7,,1.81e7,2.22e7
comm,1,3.72e7,5.13e7,,1.54e7,1.84e7
RpL15,1,1.10e7,9.09e6,,9.37e6,6.70e6
ArgRS,1,3.09e7,2.56e7,,1.57e7,1.15e7
witty,1,3.56e7,6.23e7,,1.88e7,2.65e7
witty,2,3.91e7,4.15e7,,2.25e7,1.87e7
Gpxl,1,4.18e7,3.93e7,,1.78e7,1.94e7
CRIF,1,3.06e7,4.46e7,,1.37e7,1.79e7

7 entries already listed, sorted by “resting calcium signal, replicate 1 (fluorescence units)”, low to high.
gene knocked down,reagent no.,"calcium entry signal, replicate 1 (fluorescence units)","calcium entry signal, replicate 2 (fluorescence units)",entry to resting ratio,"resting calcium signal, replicate 1 (fluorescence units)","resting calcium signal, replicate 2 (fluorescence units)"
RpS2,1,8.48e6,,,7.00e6,
Lcp65Ae,1,2.62e7,3.39e7,,1.15e7,1.26e7
CG15522,1,3.65e7,5.52e7,,1.83e7,2.20e7
qin,2,4.09e7,4.48e7,,2.88e7,2.14e7
P5cr,1,2.51e7,3.04e7,,3.56e7,1.36e7
CG1309,1,5.81e7,3.71e7,,3.78e7,1.58e7
qin,1,4.40e7,4.11e7,,4.72e7,1.86e7

The results go on.
gene knocked down,reagent no.,"calcium entry signal, replicate 1 (fluorescence units)","calcium entry signal, replicate 2 (fluorescence units)",entry to resting ratio,"resting calcium signal, replicate 1 (fluorescence units)","resting calcium signal, replicate 2 (fluorescence units)"
dop,1,3.54e7,4.48e7,,1.53e7,3.09e7
Tsp42Ej,1,3.77e7,,,1.97e7,
CG6695,1,5.25e7,4.62e7,,2.07e7,1.69e7
fz2,1,2.11e7,2.50e7,,9.92e6,1.20e7
fz2,2,4.42e7,5.59e7,,2.09e7,2.77e7
fz2,3,2.26e7,3.38e7,,1.11e7,1.53e7
CG7849,1,3.68e7,4.99e7,,1.93e7,2.38e7
CG6294 + CG6299,1,3.66e7,2.60e7,,1.91e7,1.32e7
Arc42,1,3.87e7,3.87e7,,4.69e7,1.69e7
Arc42,2,3.41e7,3.55e7,,5.06e7,1.58e7
mRpL14,1,4.14e7,4.32e7,2.2,1.85e7,1.78e7
Oscillin,1,4.75e7,3.75e7,,2.53e7,1.87e7
CG2854,1,4.50e7,4.68e7,2.2,2.07e7,2.06e7
Ugt36A1,1,2.95e7,3.54e7,,1.38e7,1.60e7
stg,1,2.59e7,2.08e7,,1.54e7,1.14e7
CG4270,1,3.20e7,2.80e7,,1.55e7,1.35e7
Bicra,1,3.53e7,5.58e7,,1.84e7,2.53e7
CG18469,1,2.19e7,5.60e7,,1.05e7,2.19e7
not,1,4.07e7,5.58e7,,2.16e7,4.00e7
CG15286,1,4.54e7,3.54e7,,2.11e7,1.82e7
Su(z)12,1,3.60e7,5.96e7,,1.74e7,2.91e7
Cdlc2,1,4.22e7,,,2.18e7,
Daxx,1,4.52e7,,,2.26e7,
CG10508,1,4.17e7,5.12e7,,1.74e7,3.37e7
CG10508,2,3.38e7,4.71e7,,1.59e7,1.97e7
frma,1,2.43e7,2.59e7,,1.13e7,1.23e7
CG12182,1,4.45e7,3.58e7,,1.96e7,1.67e7
CG10332 (retired record) + IM18,1,3.88e7,5.02e7,,1.94e7,2.19e7
Eip63F-1,1,4.26e7,4.98e7,,2.44e7,2.28e7
Eip63F-1,2,3.06e7,3.53e7,,1.52e7,1.40e7
SNF4Agamma,1,5.40e7,3.75e7,,2.60e7,1.85e7
SNF4Agamma,2,4.66e7,3.92e7,,2.42e7,1.88e7
SNF4Agamma,3,3.09e7,3.60e7,,6.62e7,1.69e7
SNF4Agamma,4,6.58e7,4.23e7,,3.31e7,2.16e7
